Measured values from patent US20030108462A1, “Method of extracting contaminants from solid matter” (priority 2001, published 2003).

Columns and labels:
[1] = Chelating-agent leaching of comminuted CCA treated wood, chromium; settings: initial wood 3380 mg/kg; for Chromium in leachate: LIQUID, leachate from treated wood; for Chromium in processed solids: WOOD after leaching
Description: (§1) 32 grams of the comminuted treated wood was used to represent 1 mole of the contaminants, and was reacted with 1000 ml of 0.1 mole ethylenediamine-N,N,N′,N′-tetraacetic acid at a temperature of 70° C. for a period of 6 hours. The sample was agitated and allowed to settle periodically to thoroughly mix the wood and the solution, as well as to facilitate leaching. After the last settling period, the mixture stratified into a green colored supernatant which contained the chelated CCA components in soluble form at the top, and clean looking sawdust at the bottom of the reaction container.
(§2) Upon completion of reaction, the supernatant was decanted and retained. The solid section was allowed to drain freely for 15 minutes, after which 500 ml of fresh water was added and the mixture was periodically mixed and allowed to settle for a period of 30 minutes. Similarly, the mixture stratified into a light green solution and cleaner looking saw dust. The liquid was decanted and added to the previously decanted liquid. The settled solids were wrapped in a 250μ filter paper and subjected to a weight of 6 pounds per square inch and allowed to drain. Upon completion, the drained liquid was added to the previously decanted liquids and sent for laboratory analysis. The retained solids were oven dried and analyzed for the target contaminants.
(§3) 100 grams of the comminuted treated wood was used to represent 1 mole of the contaminants and reacted with 1000 mL of 0.1 mole EDTA disodium solution at 30° C. for 30 hours. The sample was agitated and settled periodically to thoroughly mix the wood and the solution, as well as to facilitate leaching. After the last settling period, the mixture stratified into a green colored supernatant which contained the chelated CCA components in soluble form at the top, and clean looking sawdust at the bottom of the reaction container.
as §2, with “liquid and was sent for analysis.” for “liquid.”
(§4) 100 grams of comminuted treated wood was used to represent 1 mole of contaminants, and reacted with 1000 ml of 0.01 mole of EDTA Free Acid solution at 70° C. for 6 hours. The sample was agitated and allowed to settle periodically to thoroughly mix the wood and the solution, as well as to facilitate leaching. After the last settling period, the mixture stratified into a green colored supernatant which contained the chelated CCA components in soluble form at the top, and clean looking sawdust at the bottom of the reaction container.
as §2, with “retained” for “retained.”, “water with a known quality” for “water”, “liquid and was sent for analysis.” for “liquid.”

[2] = Chelating-agent leaching of comminuted CCA treated wood, copper; settings: initial wood 1991 mg/kg; for Copper in leachate: LIQUID, leachate from treated wood; for Copper in processed solids: WOOD after leaching
Description: as §1, §2, §3
as §2, with “liquid and was sent for analysis.” for “liquid.”
as §4
as §2, with “retained” for “retained.”, “water with a known quality” for “water”, “liquid and was sent for analysis.” for “liquid.”

| Compound | Chromium in leachate [1] | Chromium in processed solids [1] | Copper in leachate [2] | Copper in processed solids [2] |
| --- | --- | --- | --- | --- |
| O=C(O)CN(CCN(CC(=O)O)CC(=O)O)CC(=O)O [EXAMPLE 1, ethylenediamine-N,N,N′,N′-tetraacetic acid] | 4.0 mg/L | 525 mg/kg | 79 mg/L | 88.73 mg/kg |
| O=C([O-])CN(CCN(CC(=O)[O-])CC(=O)O)CC(=O)O.[Na+].[Na+] [EXAMPLE 2, EDTA disodium] | 5.67 mg/L | 309 mg/kg | 69.60 mg/L | 32.83 mg/kg |
| O=C(O)CN(CCN(CC(=O)O)CC(=O)O)CC(=O)O [EXAMPLE 3, EDTA Free Acid] | 19.60 mg/L | 308 mg/kg | 40 mg/L | 4.88 mg/kg |
